Assay in all cases: odorant receptor activation (CRE luciferase / Renilla) (fold of no-odor wells); higher = more activation
Details in all cases: 100 µM

For assay [1], the system named is OR51L1 clone 1534.
Assay [2] has as its system OR51M1 H91Q/L124F/I193T/P245H/F307L clone 1121.
The subject of assay [3] is OR51Q1 clone 1190.
For assay [4], the system named is OR51S1 clone 1699.
The test system of assay [5] is OR51T1 clone 1326.
For assay [6], the system named is OR51V1 clone 1700.
For assay [7], the system named is OR51V1 clone 1701.
Assay [8] deals with OR52A1 S272P clone 1151.
The subject of assay [9] is OR52A4 clone 1719.
The subject of assay [10] is OR52A5 clone 1568.

“And” between values parts separate entries of the source, which are not always exact repeats. Equal values may be shown once. The list shows a part of the results. Single wells; the ratio to wells without odorant was worked out here, and repeats agree poorly.

In the case of `CC(=O)C(C)=O` [diacetyl], the odorant receptor activation in assay [1] worked out at 1.49; in assay [2] it was 1.54; in assay [3], 0.938; in [4] it was 0.594; in assay [5], 1.19; in assay [6], 0.627. The odorant receptor activation was 0.88 in assay [7], 1.09 in [8], 0.968 in assay [9] and 1 in [10].
For `CC(C)CC(=O)O` [isovaleric acid], the odorant receptor activation in assay [1] turned out to be 0.924; in [2] it was 1.33; in assay [3], 0.996; in assay [4], 0.988; in [5], 0.571; in assay [6], 1.02. Moreover, the odorant receptor activation worked out at 1.15 in assay [7], 1.23 in assay [8], 0.977 in [9] and 1.03 in assay [10].
For `C=CCc1ccc(OC)c(OC)c1` [eugenol methyl ether], the odorant receptor activation stood at 1.42 in [1]; 1.75 in assay [2]; 1.51 in assay [3]; 0.68 in [4]; 1.55 in assay [5]; 0.976 in [6]. Also, the odorant receptor activation is 0.713 in assay [7], 1.3 in [8], 0.947 in assay [9] and 1.05 in assay [10].
Take `C=CC(C)(O)CCC=C(C)C` (stereo not given) [linalool]: the odorant receptor activation was found to be 1.13 in assay [1]; 1.34 in assay [2]; 1.03 in assay [3]; 0.908 in assay [4]; 0.53 in [5]; 1.09 in [6]. Also, the odorant receptor activation in assay [7] came out at 1.14; in [8], 1.21; in assay [9], 1.11; in [10], 1.04.
On to `CC(=O)OCC=C(C)CCC=C(C)C` [geranyl acetate], for which the odorant receptor activation in [1] is 0.922 and 1.58; in assay [2], 2.41; in [3], 1.08; in assay [4] it was 1.29; in [5] it was 0.953 and 0.803; in assay [6], 1.55. For the same compound, the odorant receptor activation in assay [7] was 0.981; in assay [8], 0.967; in [9], 1.5; in [10], 1.54.
For the compound `COC(=O)c1ccccc1O` [methyl salicylate], the odorant receptor activation in assay [1] worked out at 1.04; in assay [2] it was 0.968; in [3], 0.962; in assay [4], 1.08; in [5], 0.509; in assay [6], 0.867. Also, the odorant receptor activation in [7] stood at 1.08; in [8] it was 0.803; in assay [9] it was 0.845; in [10], 0.844.
As to `CC(=O)OC1CC2CCC1(C)C2(C)C` (stereo not given) [isobornyl acetate], the odorant receptor activation is 0.864 and 0.997 in assay [1]; 1.17 in assay [2]; 1.01 in [3]; 1.21 in assay [4]; 0.838 and 1.23 in assay [5]; 1 in [6]. The odorant receptor activation was determined as 1.03 in assay [7], 1.09 in [8], 0.918 in assay [9] and 0.875 in assay [10].
`C=C(C)C1CC=C(C)C(=O)C1` (stereo not given) [r-carvone]: the odorant receptor activation in [1] turned out to be 0.846; in assay [2] it was 1.15; in [3] it was 0.622; in assay [4] it was 0.772; in [5], 0.786; in [6] it was 0.952. The odorant receptor activation was determined as 0.644 in assay [7], 1.09 in assay [8], 0.757 in assay [9] and 0.7 in assay [10].
For `CC1CCC(C(C)C)C(O)C1` (single isomer, unassigned; (-)) [(-)-menthol], the odorant receptor activation in assay [1] is 3.38; in assay [2], 0.919; in assay [3] it was 0.937; in assay [4], 0.764; in assay [5], 0.692; in assay [6], 1.08. Also, the odorant receptor activation in assay [7] is 0.892; in [8], 0.94; in assay [9], 0.88; in assay [10], 1.15.
Regarding `C=CCc1ccc(O)c(OC)c1` [eugenol], the odorant receptor activation is 0.901 and 0.697 and 1.18 in assay [1]; 1.43 in assay [2]; 1.38 and 1.64 in assay [3]; 0.961 in assay [4]; 1.1 and 1.56 in assay [5]; 0.698 in assay [6]. The odorant receptor activation in assay [7] is 1.05; in assay [8], 2.44 and 1.06; in assay [9] it was 1.36; in [10], 1.41.
For `c1ccc(Oc2ccccc2)cc1` [diphenyl ether], the odorant receptor activation worked out at 1.07 in assay [1]; 1.06 in [2]; 0.918 in assay [3]; 0.705 in assay [4]; 0.976 in assay [5]; 0.658 in assay [6]. The odorant receptor activation came out at 0.932 in [7], 0.814 in assay [8], 0.734 in assay [9] and 0.837 in assay [10].
`CC(C)C=O` [isobutyraldehyde]: the odorant receptor activation in assay [1] is 0.809 and 1.3; in assay [2] it was 0.94; in assay [3] it was 0.907; in [4], 0.953; in assay [5], 1.04 and 1.01; in [6], 0.79. Moreover, the odorant receptor activation in assay [7] stood at 1; in assay [8], 0.882; in assay [9], 1.08; in assay [10] it was 0.911.
On to `CCCCCCCCOC(C)=O` [octyl acetate], for which the odorant receptor activation in assay [1] amounted to 0.935; in assay [2], 1.04; in [3], 1.09; in assay [4], 0.689; in assay [5], 0.775; in [6] it was 0.968. The odorant receptor activation stood at 0.604 in assay [7], 1.08 in assay [8], 0.741 in assay [9] and 0.717 in assay [10].
For the compound `COc1cc(C)ccc1O` [2-methoxy-4-methylphenol], the odorant receptor activation in assay [1] stood at 0.683; in assay [2], 0.921; in assay [3], 0.987; in assay [4], 0.898; in [5], 0.945; in assay [6], 0.914. For the same compound, the odorant receptor activation came out at 1.01 in [7], 1.12 in assay [8], 0.956 in [9] and 0.944 in assay [10].
With `CCCCCCCC=CC=O` [2-decenal], the odorant receptor activation in assay [1] came out at 1.43; in assay [2], 0.893; in assay [3], 0.878; in assay [4] it was 1.2; in assay [5], 0.915; in assay [6], 1.16. In addition, the odorant receptor activation amounted to 0.908 in assay [7], 0.965 in assay [8], 1.18 in assay [9] and 1.07 in assay [10].
For the compound `CCCCCCOC(=O)CCC` [hexyl butyrate], the odorant receptor activation is 0.96 and 0.885 in [1]; 1.15 in assay [2]; 0.833 in [3]; 0.821 in assay [4]; 0.775 and 0.747 in assay [5]; 0.768 in assay [6]. In addition, the odorant receptor activation in assay [7] was 0.794; in assay [8], 0.977; in assay [9], 0.913; in [10], 0.995.
As to `CCCCCCCC=O` [octyl aldehyde], the odorant receptor activation in [1] worked out at 0.969; in assay [2] it was 1.08; in assay [3] it was 1.06; in assay [4], 0.773; in assay [5], 0.621; in assay [6] it was 0.919. Besides, the odorant receptor activation in assay [7] is 0.812; in [8], 1.06; in assay [9], 0.669; in assay [10] it was 0.799.
Turning to `O=C1CCCCCCCCCCCC(=O)OCCO1` [ethylene brassylate], the odorant receptor activation in assay [1] is 1.28; in assay [2], 1.53; in [3], 2.24; in assay [4], 0.757; in assay [5] it was 1.4; in [6] it was 0.839. Moreover, the odorant receptor activation in [7] is 1.37; in assay [8], 1.7; in assay [9], 1.42; in assay [10], 1.4.
As for `COc1cc(C=O)ccc1O` [vanillin], the odorant receptor activation in assay [1] was 0.919; in [2], 0.856; in [3], 0.891; in assay [4] it was 1.52; in [5], 1.02; in assay [6], 0.716. In addition, the odorant receptor activation in assay [7] worked out at 0.751; in assay [8], 1.08; in assay [9], 0.493; in assay [10], 0.974.
As for `CC(C)CCC(=O)O` [4-methylvaleric acid], the odorant receptor activation is 1.52 in assay [1]; 0.902 in [2]; 0.793 in assay [3]; 0.819 in [4]; 0.815 in [5]; 1.03 in assay [6]. Moreover, the odorant receptor activation was determined as 0.797 in assay [7], 0.891 in assay [8], 1.01 in assay [9] and 0.82 in assay [10].
`C=CCc1ccc(OC(C)=O)c(OC)c1` [eugenol acetate]: the odorant receptor activation was 1.78 in assay [1]; 1.61 in assay [2]; 2.21 in assay [3]; 1.63 in assay [4]; 1.6 in assay [5]; 1.55 in [6]. The odorant receptor activation in [7] came to 2.45; in [8], 2.06; in assay [9], 2.37; in assay [10], 2.09.

The values are drawn from the odorant receptor screen of Mainland et al. (2015).
